Reference: ChEMBL document CHEMBL5674883, “The Heterochromatin Landscape in Migrating Cells and the Importance of H3K27me3 for Associated Transcriptome Alterations” (Cells, 2018)
The source gives many values for each of these; only a part stands here.

Chains of the proteins cited; added tags and fusions are not shown.
UniProt Q61188, whole entry: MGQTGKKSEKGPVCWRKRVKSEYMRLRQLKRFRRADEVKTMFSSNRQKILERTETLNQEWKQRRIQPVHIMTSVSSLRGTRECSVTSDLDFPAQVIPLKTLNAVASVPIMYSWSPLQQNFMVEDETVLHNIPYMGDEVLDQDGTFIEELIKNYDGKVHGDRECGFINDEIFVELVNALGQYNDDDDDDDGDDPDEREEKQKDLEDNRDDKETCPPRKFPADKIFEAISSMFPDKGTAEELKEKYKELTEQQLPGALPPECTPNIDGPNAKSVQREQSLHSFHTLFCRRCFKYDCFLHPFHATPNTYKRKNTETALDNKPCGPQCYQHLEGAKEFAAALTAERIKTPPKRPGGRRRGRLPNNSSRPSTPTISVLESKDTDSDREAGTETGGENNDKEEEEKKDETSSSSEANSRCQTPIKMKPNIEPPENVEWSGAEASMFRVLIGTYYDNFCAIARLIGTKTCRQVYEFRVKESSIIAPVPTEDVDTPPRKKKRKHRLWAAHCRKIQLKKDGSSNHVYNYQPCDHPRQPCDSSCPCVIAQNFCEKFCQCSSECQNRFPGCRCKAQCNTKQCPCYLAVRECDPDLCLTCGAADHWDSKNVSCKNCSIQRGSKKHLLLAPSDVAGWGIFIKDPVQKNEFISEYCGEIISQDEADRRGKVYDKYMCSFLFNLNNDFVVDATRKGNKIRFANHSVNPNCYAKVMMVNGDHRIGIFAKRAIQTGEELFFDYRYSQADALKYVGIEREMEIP

Tests used:
Assay type in all cases: cell-based
[1] = molecular target: T1, RNA polymerase II (Mus musculus) (UniProt P08775+Q8CFI7+P97760+A0A3Q4L2S8+Q80UW8+P61219+P62488+Q923G2+P60898+O08740+Q63871+P62876); test: Inhibition of RNA polymerase II in mouse B16-F1 migrating cells assessed as fold change in Zfp281-RNA stability at 0.1 mM measured by ChIP-seq analysis relative to control cells
[2] = molecular target: T1, RNA polymerase II (Mus musculus); test: Inhibition of RNA polymerase II in mouse B16-F1 migrating cells assessed as fold change in Dcun1d1-RNA stability at 0.1 mM measured by ChIP-seq analysis relative to control cells
[3] = molecular target: T1, RNA polymerase II (Mus musculus); test: Inhibition of RNA polymerase II in mouse B16-F1 migrating cells assessed as fold change in Gtf2h1-RNA stability at 0.1 mM measured by ChIP-seq analysis relative to control cells
[4] = molecular target: T1, RNA polymerase II (Mus musculus); test: Inhibition of RNA polymerase II in mouse B16-F1 migrating cells assessed as fold change in Zfp800-RNA stability at 0.1 mM measured by ChIP-seq analysis relative to control cells
[5] = molecular target: T1, RNA polymerase II (Mus musculus); test: Inhibition of RNA polymerase II in mouse B16-F1 migrating cells assessed as fold change in Smim19-RNA stability at 0.1 mM measured by ChIP-seq analysis relative to control cells
[6] = molecular target: T1, RNA polymerase II (Mus musculus); test: Inhibition of RNA polymerase II in mouse B16-F1 migrating cells assessed as fold change in Cisd3-RNA stability at 0.1 mM measured by ChIP-seq analysis relative to control cells
[7] = molecular target: T1, RNA polymerase II (Mus musculus); test: Inhibition of RNA polymerase II in mouse B16-F1 migrating cells assessed as fold change in Fez2-RNA stability at 0.1 mM measured by ChIP-seq analysis relative to control cells
[8] = molecular target: T1, RNA polymerase II (Mus musculus); test: Inhibition of RNA polymerase II in mouse B16-F1 migrating cells assessed as fold change in Snf8-RNA stability at 0.1 mM measured by ChIP-seq analysis relative to control cells
[9] = molecular target: T1, RNA polymerase II (Mus musculus); test: Inhibition of RNA polymerase II in mouse B16-F1 migrating cells assessed as fold change in Tsr1-RNA stability at 0.1 mM measured by ChIP-seq analysis relative to control cells
[10] = molecular target: T1, RNA polymerase II (Mus musculus); test: Inhibition of RNA polymerase II in mouse B16-F1 migrating cells assessed as fold change in Atp2b1-RNA stability at 0.1 mM measured by ChIP-seq analysis relative to control cells
[11] = molecular target: T1, RNA polymerase II (Mus musculus); test: Inhibition of RNA polymerase II in mouse B16-F1 migrating cells assessed as fold change in Actr6-RNA stability at 0.1 mM measured by ChIP-seq analysis relative to control cells
[12] = molecular target: T1, RNA polymerase II (Mus musculus); test: Inhibition of RNA polymerase II in mouse B16-F1 migrating cells assessed as fold change in Sra1-RNA stability at 0.1 mM measured by ChIP-seq analysis relative to control cells
[13] = molecular target: T1, RNA polymerase II (Mus musculus); test: Inhibition of RNA polymerase II in mouse B16-F1 migrating cells assessed as fold change in Dstyk-RNA stability at 0.1 mM measured by ChIP-seq analysis relative to control cells
[14] = molecular target: T1, RNA polymerase II (Mus musculus); test: Inhibition of RNA polymerase II in mouse B16-F1 migrating cells assessed as fold change in Sh3bgrl-RNA stability at 0.1 mM measured by ChIP-seq analysis relative to control cells
[15] = molecular target: T1, RNA polymerase II (Mus musculus); test: Inhibition of RNA polymerase II in mouse B16-F1 migrating cells assessed as fold change in Nom1-RNA stability at 0.1 mM measured by ChIP-seq analysis relative to control cells
[16] = molecular target: T1, RNA polymerase II (Mus musculus); test: Inhibition of RNA polymerase II in mouse B16-F1 migrating cells assessed as fold change in Mreg-RNA stability at 0.1 mM measured by ChIP-seq analysis relative to control cells
[17] = molecular target: T1, RNA polymerase II (Mus musculus); test: Inhibition of RNA polymerase II in mouse B16-F1 migrating cells assessed as fold change in Rsrc2-RNA stability at 0.1 mM measured by ChIP-seq analysis relative to control cells
[18] = molecular target: T1, RNA polymerase II (Mus musculus); test: Inhibition of RNA polymerase II in mouse B16-F1 migrating cells assessed as fold change in Cdk7-RNA stability at 0.1 mM measured by ChIP-seq analysis relative to control cells
[19] = molecular target: T1, RNA polymerase II (Mus musculus); test: Inhibition of RNA polymerase II in mouse B16-F1 migrating cells assessed as fold change in Spcs3-RNA stability at 0.1 mM measured by ChIP-seq analysis relative to control cells
[20] = molecular target: T1, RNA polymerase II (Mus musculus); test: Inhibition of RNA polymerase II in mouse B16-F1 migrating cells assessed as fold change in Kif15-RNA stability at 0.1 mM measured by ChIP-seq analysis relative to control cells
[21] = molecular target: Histone-lysine N-methyltransferase EZH2 (Mus musculus) (UniProt Q61188); test: Inhibition of EZH2 in mouse B16-F1 migrating cells assessed as fold change in H3K27me3-buffered regulated Dusp1-mRNA expression at 3 uM measured by ChIP-seq analysis relative to control cells
[22] = molecular target: Histone-lysine N-methyltransferase EZH2 (Mus musculus) (UniProt Q61188); test: Inhibition of EZH2 in mouse B16-F1 migrating cells assessed as fold change in H3K27me3-independent regulated Espn-mRNA expression at 3 uM measured by ChIP-seq analysis relative to control cells
[23] = molecular target: Histone-lysine N-methyltransferase EZH2 (Mus musculus) (UniProt Q61188); test: Inhibition of EZH2 in mouse B16-F1 migrating cells assessed as fold change in H3K27me3-dependent regulated Zfp382-mRNA expression at 3 uM measured by ChIP-seq analysis relative to control cells
[24] = molecular target: Histone-lysine N-methyltransferase EZH2 (Mus musculus) (UniProt Q61188); test: Inhibition of EZH2 in mouse B16-F1 migrating cells assessed as fold change in H3K27me3-independent regulated Nog-mRNA expression at 3 uM measured by ChIP-seq analysis relative to control cells
[25] = molecular target: Histone-lysine N-methyltransferase EZH2 (Mus musculus) (UniProt Q61188); test: Inhibition of EZH2 in mouse B16-F1 migrating cells assessed as fold change in H3K27me3-buffered regulated Rapgef4-mRNA expression at 3 uM measured by ChIP-seq analysis relative to control cells
[26] = molecular target: Histone-lysine N-methyltransferase EZH2 (Mus musculus) (UniProt Q61188); test: Inhibition of EZH2 in mouse B16-F1 migrating cells assessed as fold change in H3K27me3-buffered regulated Atad5-mRNA expression at 3 uM measured by ChIP-seq analysis relative to control cells
[27] = molecular target: Histone-lysine N-methyltransferase EZH2 (Mus musculus) (UniProt Q61188); test: Inhibition of EZH2 in mouse B16-F1 migrating cells assessed as fold change in H3K27me3-buffered regulated Wdr76-mRNA expression at 3 uM measured by ChIP-seq analysis relative to control cells
[28] = molecular target: Histone-lysine N-methyltransferase EZH2 (Mus musculus) (UniProt Q61188); test: Inhibition of EZH2 in mouse B16-F1 migrating cells assessed as fold change in H3K27me3-independent regulated Car9-mRNA expression at 3 uM measured by ChIP-seq analysis relative to control cells
[29] = molecular target: Histone-lysine N-methyltransferase EZH2 (Mus musculus) (UniProt Q61188); test: Inhibition of EZH2 in mouse B16-F1 migrating cells assessed as fold change in H3K27me3-buffered regulated Dlc1-mRNA expression at 3 uM measured by ChIP-seq analysis relative to control cells
[30] = molecular target: Histone-lysine N-methyltransferase EZH2 (Mus musculus) (UniProt Q61188); test: Inhibition of EZH2 in mouse B16-F1 migrating cells assessed as fold change in H3K27me3-buffered regulated Frs3-mRNA expression at 3 uM measured by ChIP-seq analysis relative to control cells

## OC[C@H]1O[C@@H](n2cnc3cc(Cl)c(Cl)cc32)[C@H](O)[C@@H]1O
[1]
  log2FC: -1.06
[2]
  log2FC: -0.66
[3]
  log2FC: -0.73
[4]
  log2FC: -0.93
[5]
  log2FC: 0.71
[6]
  log2FC: 0.6
[7]
  log2FC: 0.48
[8]
  log2FC: 0.42
[9]
  log2FC: -0.68
[10]
  log2FC: -0.65
[11]
  log2FC: -0.69
[12]
  log2FC: 0.45
[13]
  log2FC: -0.43
[14]
  log2FC: -0.84
[15]
  log2FC: -0.53
[16]
  log2FC: -0.55
[17]
  log2FC: -0.95
[18]
  log2FC: -0.54
[19]
  log2FC: -0.47
[20]
  log2FC: -1.07

## CCCc1cc(C)[nH]c(=O)c1CNC(=O)c1cc(-c2ccnc(N3CCN(C)CC3)c2)cc2c1cnn2C(C)C
[21]
  log2FC: 0.72
[22]
  log2FC: 0.79
[23]
  log2FC: -0.35
[24]
  log2FC: 0.47
[25]
  log2FC: -0.46
[26]
  log2FC: -0.5
[27]
  log2FC: -0.4
[28]
  log2FC: 0.92
[29]
  log2FC: -0.57
[30]
  log2FC: -0.84
